These are yes or no findings as the source states them, for the method shown. In cells and extracts the contact can be indirect. Some binding calls cover weakened binding; strength is not graded here.

Consider two molecules from paper PMC9654362.

Test [1] has as its target endogenous FTH1 (ferritin heavy chain) (human (endogenous in HEK-293T)) (UniProt P02794). As to the kind of experiment: co-IP; endogenous proteins in wild-type HEK-293T; RIPA lysate incubated overnight at 4 °C with 1 ug anti-FTH1 antibody or non-immune serum, then Protein A/G plus-agarose; blot with anti-FTH1 or anti-PRDX6.
In test [2] the target is 3xFlag-FTH1 (ferritin heavy chain, H Ferritin subunit) (human) (UniProt P02794). The experiment in a line: co-IP; HEK-293T transfected with 3xFlag-FTH1 or 3xFlag control vector; lysates on ANTI-FLAG M2 affinity gel; Western blot with anti-PRDX6 and anti-Flag. Background: In western blotting, separated proteins are transferred to a membrane and probed.
Test [3] addresses 3xFlag-FTH1 (ferritin heavy chain) expressed in NCI-H460 cells (human) (UniProt P02794). As to the kind of experiment: co-IP; NCI-H460 transfected with Flag-FTH1 or 3x-Flag control vector; lysates on anti-Flag M2 resin; blot with anti-PRDX6 and anti-Flag.

B1: Peroxiredoxin 6 (PRDX6), endogenous in HEK-293T (enzyme, UniProt P30041 1-224)
chain: MPGGLLLGDVAPNFEANTTVGRIRFHDFLGDSWGILFSHPRDFTPVCTTELGRAAKLAPEFAKRNVKLIALSIDSVEDHLAWSKDINAYNCEEPTEKLPFPIIDDRNRELAILLGMLDPAEKDEKGMPVTARVVFVFGPDKKLKLSILYPATTGRNFDEILRVVISLQLTAEKRVATPVDWKDGDSVMVLPTIPEEEAKKLFPKGVFTKELPSGKKYLRYTPQP
Consider B1, for which the binding result in test [1] and in test [2] was “binds” throughout.

B2: Peroxiredoxin 6 (PRDX6), endogenous in NCI-H460 (enzyme, UniProt P30041 1-224)
chain: B1 chain
With B2, the binding entry in test [3] was “binds”.
